Reference: patent US6897209B2, “Labelled factor XIIIa substrates” (GE Healthcare Limited, priority 1997, dated 2005)
Some entries share one result that the patent states for a list of compounds. At least one compound was matched to its structure with a doubt left. Some compounds share one range, which may span the group rather than tell each member.

Test: Normal rat biodistribution
Assay type: in vivo
Details: within 4 h
Procedure: The resolution of a clot image is dependant on the combination of rate of incorporation of the radiopharmaceutical and its blood/tissues clearance rate. For this reason the biodistribution of several compounds has been determined in rats. Male Wistar (100-150 g) rats were injected i.v. with 0.1-0.2 ml of radiolabelled tracer solution (8 MBq/ml) and dissected at different times post-injection. The % ID in each of the selected tissues was measured. Some animals were kept in metabolism cages to be able to determine the % ID excreted in urine and faeces. The dissection times used for the majority of the agents was 2, 15, 30, 60, 240 min. Data are shown as % ID, Mean±SD, (n=3).

In the case of `CC(=NO)C(C)(C)NCCN(CCNC(=O)C1CCC(CNC(=O)c2ccc(S(=O)(=O)NCCCCCN)cc2)CC1)CCNC(C)(C)C(C)=NO` (stereo not shown) [Compound 17], the “% ID excreted by the urinary system” value is reported as 50-90 % ID.
